Assay [1] concerns the target myc-tagged full length human TrkB (human) (UniProt Q16620). Briefly: restates the in vitro co-immunoprecipitation.
Assay [2] has the same target. Briefly: co-immunoprecipitation from lysates of transfected 293T cells (IP with anti-LINGO-1, western blot with anti-myc for TrkB). For orientation: In western blotting, separated proteins are transferred to a membrane and probed.
For assay [3], the target named is TrkB of rat retina (endogenous) (rat) (UniProt Q63604). As to the kind of experiment: co-immunoprecipitation from rat retinal lysates (IP with anti-TrkB, western blot with anti-LINGO-1).

Amino acid sequences for entries named in this document (tags omitted). A change or cut given only in a name is not applied to a line headed by its entry. Chains listed by the source or under a name are the forms on record and can include a tag or linker.
UniProt Q16620: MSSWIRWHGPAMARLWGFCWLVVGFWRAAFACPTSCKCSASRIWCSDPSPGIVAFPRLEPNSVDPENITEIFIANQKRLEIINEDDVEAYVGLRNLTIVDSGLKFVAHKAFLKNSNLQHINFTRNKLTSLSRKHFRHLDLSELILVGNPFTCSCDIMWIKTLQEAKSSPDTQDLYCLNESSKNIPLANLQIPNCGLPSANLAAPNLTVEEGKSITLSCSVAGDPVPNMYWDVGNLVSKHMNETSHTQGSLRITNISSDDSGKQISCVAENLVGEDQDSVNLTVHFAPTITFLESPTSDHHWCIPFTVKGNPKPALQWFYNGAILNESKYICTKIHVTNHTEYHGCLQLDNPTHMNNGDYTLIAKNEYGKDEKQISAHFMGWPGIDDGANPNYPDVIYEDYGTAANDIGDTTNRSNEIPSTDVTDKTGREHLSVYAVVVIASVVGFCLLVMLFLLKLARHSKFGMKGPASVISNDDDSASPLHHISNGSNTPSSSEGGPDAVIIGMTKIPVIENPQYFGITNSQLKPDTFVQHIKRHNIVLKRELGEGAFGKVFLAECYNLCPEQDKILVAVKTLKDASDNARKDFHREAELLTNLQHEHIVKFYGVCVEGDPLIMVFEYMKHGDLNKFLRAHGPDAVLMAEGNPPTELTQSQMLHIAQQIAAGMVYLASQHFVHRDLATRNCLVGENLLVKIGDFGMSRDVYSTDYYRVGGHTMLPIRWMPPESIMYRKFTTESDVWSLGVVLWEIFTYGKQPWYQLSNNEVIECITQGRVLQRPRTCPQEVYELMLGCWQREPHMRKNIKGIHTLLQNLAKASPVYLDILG
UniProt Q63604: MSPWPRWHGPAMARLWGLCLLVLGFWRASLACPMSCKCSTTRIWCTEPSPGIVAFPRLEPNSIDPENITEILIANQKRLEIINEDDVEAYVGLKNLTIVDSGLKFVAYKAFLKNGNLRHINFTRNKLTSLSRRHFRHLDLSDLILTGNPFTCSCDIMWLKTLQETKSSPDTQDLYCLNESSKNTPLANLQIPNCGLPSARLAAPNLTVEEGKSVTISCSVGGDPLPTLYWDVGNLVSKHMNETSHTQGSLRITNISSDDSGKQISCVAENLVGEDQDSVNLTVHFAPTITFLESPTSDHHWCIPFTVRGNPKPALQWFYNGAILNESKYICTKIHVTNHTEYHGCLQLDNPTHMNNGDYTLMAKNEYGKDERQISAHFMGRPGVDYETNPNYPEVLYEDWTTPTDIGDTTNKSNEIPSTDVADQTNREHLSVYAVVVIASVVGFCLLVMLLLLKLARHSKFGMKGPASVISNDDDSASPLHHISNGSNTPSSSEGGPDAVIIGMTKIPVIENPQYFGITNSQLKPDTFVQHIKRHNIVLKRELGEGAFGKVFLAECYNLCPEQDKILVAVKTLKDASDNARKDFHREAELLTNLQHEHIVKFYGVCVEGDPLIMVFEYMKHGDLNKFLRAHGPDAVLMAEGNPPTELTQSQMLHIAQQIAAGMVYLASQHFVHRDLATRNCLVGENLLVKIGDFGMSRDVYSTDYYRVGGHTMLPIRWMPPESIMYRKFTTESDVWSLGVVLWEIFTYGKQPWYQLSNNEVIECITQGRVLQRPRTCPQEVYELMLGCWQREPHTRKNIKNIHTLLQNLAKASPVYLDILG
UniProt Q96FE5: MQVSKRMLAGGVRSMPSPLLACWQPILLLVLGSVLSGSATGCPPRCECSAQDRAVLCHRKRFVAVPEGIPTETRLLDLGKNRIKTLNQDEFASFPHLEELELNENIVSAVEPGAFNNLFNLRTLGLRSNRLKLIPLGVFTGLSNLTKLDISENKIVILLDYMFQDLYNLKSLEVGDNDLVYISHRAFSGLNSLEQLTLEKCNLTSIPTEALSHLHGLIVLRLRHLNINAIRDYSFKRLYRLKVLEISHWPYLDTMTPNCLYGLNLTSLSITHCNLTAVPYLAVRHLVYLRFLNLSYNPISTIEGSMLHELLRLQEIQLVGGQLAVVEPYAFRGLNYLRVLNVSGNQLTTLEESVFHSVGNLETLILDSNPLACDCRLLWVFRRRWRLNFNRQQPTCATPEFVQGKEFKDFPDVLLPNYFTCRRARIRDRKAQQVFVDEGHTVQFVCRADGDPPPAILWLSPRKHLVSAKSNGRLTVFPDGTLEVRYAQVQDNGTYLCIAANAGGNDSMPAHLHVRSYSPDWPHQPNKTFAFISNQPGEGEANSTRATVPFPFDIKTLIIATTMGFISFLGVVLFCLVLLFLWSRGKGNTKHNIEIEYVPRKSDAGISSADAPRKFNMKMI
LINGO-1 of rat retina (endogenous) (A0A8I5ZPI2, form named): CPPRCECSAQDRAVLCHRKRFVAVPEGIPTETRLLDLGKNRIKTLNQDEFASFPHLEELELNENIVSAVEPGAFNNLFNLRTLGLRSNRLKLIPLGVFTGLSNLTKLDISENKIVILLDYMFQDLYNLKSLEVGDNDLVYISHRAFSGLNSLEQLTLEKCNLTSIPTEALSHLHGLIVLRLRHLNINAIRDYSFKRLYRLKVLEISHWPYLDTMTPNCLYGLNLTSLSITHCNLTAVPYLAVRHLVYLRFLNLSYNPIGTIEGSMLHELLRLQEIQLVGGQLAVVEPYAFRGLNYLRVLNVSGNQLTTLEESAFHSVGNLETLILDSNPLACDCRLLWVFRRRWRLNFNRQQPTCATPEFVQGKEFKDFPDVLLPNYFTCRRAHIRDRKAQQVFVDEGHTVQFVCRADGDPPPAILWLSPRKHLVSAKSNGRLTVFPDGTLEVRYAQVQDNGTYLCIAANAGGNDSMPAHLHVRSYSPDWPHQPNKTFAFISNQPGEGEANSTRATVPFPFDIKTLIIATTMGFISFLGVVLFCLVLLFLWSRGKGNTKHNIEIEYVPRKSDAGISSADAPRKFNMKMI

These are yes or no findings as the source states them, for the method shown. In cells and extracts the contact can be indirect. Some binding calls cover weakened binding; strength is not graded here.

In the case of “HA-tagged full length human LINGO-1 (from UniProt Q96FE5 42-620) (receptor)”, the binding entry in assay [1] and in assay [2] was “binds” throughout.
For “LINGO-1 of rat retina (endogenous) (from UniProt A0A8I5ZPI2 36-614) (receptor)”, the binding entry in assay [3] was “binds”.
